# Percent effect of library compounds

The chains behind the UniProt entries cited, without tags or fusion partners. Residues count along the entry.
UniProt P9WPC5, whole entry: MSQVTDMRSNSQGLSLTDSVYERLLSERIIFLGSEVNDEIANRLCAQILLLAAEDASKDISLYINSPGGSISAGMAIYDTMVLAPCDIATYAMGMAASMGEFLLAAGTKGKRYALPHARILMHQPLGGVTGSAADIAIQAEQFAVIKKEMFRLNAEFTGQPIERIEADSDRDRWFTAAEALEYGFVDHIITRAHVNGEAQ
UniProt P9WPC3, whole entry partner: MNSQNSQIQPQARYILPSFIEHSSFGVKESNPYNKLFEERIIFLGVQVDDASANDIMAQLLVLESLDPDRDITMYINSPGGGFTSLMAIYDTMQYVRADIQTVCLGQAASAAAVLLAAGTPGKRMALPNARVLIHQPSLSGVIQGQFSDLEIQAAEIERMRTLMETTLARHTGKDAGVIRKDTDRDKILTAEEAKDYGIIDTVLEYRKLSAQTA
UniProt I6X8D2, whole entry: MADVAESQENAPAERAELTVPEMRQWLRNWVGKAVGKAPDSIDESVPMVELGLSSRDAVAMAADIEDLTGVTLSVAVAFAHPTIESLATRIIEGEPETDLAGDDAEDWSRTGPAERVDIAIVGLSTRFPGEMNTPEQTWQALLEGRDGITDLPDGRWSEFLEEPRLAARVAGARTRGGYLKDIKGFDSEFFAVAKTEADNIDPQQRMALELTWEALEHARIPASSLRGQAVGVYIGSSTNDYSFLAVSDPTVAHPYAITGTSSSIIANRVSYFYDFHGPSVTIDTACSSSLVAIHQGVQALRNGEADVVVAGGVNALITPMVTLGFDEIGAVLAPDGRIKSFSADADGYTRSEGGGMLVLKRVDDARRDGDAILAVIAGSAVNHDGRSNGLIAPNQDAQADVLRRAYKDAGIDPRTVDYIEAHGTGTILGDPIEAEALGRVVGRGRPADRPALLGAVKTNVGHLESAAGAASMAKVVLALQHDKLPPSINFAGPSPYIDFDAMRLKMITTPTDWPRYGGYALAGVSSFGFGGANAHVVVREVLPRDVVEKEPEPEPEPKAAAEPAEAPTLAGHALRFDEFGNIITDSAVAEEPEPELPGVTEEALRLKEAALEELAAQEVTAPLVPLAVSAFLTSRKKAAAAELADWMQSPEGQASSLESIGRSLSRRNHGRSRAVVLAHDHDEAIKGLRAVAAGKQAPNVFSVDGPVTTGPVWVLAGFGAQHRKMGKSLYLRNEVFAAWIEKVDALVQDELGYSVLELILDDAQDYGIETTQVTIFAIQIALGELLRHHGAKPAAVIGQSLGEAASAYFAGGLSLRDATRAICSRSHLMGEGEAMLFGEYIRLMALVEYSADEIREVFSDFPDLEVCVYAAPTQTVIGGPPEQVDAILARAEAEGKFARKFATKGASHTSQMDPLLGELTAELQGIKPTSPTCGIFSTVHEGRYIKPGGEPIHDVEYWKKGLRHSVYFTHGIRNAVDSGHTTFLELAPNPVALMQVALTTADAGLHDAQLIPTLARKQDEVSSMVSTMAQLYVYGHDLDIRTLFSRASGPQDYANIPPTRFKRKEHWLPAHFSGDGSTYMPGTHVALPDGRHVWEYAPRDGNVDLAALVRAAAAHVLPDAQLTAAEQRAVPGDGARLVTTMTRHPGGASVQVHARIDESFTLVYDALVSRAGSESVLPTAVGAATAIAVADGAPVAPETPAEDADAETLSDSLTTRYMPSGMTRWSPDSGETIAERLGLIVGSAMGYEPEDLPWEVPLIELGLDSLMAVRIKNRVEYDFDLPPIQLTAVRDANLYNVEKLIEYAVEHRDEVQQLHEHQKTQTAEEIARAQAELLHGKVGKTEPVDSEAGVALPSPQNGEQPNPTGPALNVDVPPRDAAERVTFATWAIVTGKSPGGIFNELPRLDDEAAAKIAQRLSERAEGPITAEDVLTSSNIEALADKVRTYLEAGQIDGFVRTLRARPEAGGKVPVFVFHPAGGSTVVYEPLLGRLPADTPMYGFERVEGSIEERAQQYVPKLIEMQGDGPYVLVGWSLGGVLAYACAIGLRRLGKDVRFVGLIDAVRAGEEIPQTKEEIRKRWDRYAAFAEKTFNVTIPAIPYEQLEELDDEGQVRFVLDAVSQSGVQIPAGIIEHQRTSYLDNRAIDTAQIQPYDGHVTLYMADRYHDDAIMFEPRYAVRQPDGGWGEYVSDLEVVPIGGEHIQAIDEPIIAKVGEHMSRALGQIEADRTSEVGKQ
UniProt Q8IDJ8, 1-583: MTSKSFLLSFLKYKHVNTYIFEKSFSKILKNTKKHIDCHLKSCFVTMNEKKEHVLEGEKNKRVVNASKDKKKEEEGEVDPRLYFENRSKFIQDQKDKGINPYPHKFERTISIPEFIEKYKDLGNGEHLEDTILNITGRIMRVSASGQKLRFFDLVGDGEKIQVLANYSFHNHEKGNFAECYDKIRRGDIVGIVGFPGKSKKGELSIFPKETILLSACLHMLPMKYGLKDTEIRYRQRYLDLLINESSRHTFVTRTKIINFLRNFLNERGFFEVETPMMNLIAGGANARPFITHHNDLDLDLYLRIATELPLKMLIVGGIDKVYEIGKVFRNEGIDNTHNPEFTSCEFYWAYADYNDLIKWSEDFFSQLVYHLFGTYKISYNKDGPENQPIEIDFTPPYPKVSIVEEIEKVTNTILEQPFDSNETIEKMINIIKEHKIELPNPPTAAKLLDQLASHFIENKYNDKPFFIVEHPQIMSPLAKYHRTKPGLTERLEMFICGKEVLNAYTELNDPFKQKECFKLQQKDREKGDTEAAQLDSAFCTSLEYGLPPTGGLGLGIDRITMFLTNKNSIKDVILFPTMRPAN

Data taken from ChEMBL document CHEMBL3988442, “University of Dundee, Small-Polar-MMV Screening Library” (2021).

Each number is a percent effect as filed. How 0% and 100% were set is not recorded. Most values in the screen are low, and negative values occur. This is an unselected part of the compounds tested. Two or more numbers in one place are separate tests of the same structure; such repeats can differ widely. A dash means the value is not listed here; it may have been measured.

ClpP1P2: 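Protease assay of ClpP1P2, read by the AMC dye that it sets free. Target: ClpP1P2, Mycobacterium tuberculosis (UniProt P9WPC5 and UniProt P9WPC3). Tested at 50 µM. Higher reads as stronger inhibition, judged from the few compounds that gave an IC50. Most other retested compounds had strongly negative values. Size under these conditions: about 69,000 compounds, about 10 of them at 50% or above in at least one test.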
Leishmania in macrophages: 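Cell assay of Leishmania donovani living inside macrophages; the read-out is not stated. Concentration: 30 µM. The record gives no direction; compounds that gave an IC50 in retests scored well above the rest, so higher reads as stronger inhibition. Size under these conditions: about 69,000 compounds, about 1,000 of them at 50% or above in at least one test.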
Pks13 thioesterase: 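Polyketide synthase Pks13, Mycobacterium tuberculosis (UniProt I6X8D2). Enzyme assay of the thioesterase domain of polyketide synthase 13; the read-out is not stated. Compounds at 30 µM. The record gives no direction; the compounds picked for IC50 retests had high values, so higher reads as stronger inhibition. Of about 67,000 compounds tested this way, about 300 (0.46%) reached 50% or more in at least one test.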
PfKRS1: 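Enzyme assay of the cytosolic lysyl-tRNA synthetase in 384-well plates, read by luminescence. Target: Lysine-tRNA ligase, Plasmodium falciparum 3D7 (UniProt Q8IDJ8). Tested at 30 µM. Higher reads as stronger inhibition, judged from the few compounds that gave an IC50. About 69,000 compounds were tested under these conditions; 0.071% (about 49) showed 50% or more at least once.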
Toxoplasma: 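Assay of Toxoplasma gondii numbers, read through their beta-galactosidase reporter with a colour substrate. Tested at 10 µM. Higher reads as fewer parasites (inferred from which compounds were picked for retests). Size under these conditions: about 67,000 compounds, about 260 of them at 50% or above in at least one test.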

structure,ClpP1P2,Leishmania in macrophages,Pks13 thioesterase,PfKRS1,Toxoplasma
Cc1ccc(CNC(=O)N(Cc2ccccc2F)C2CC2)cn1,-8.964,17.89,-9.813,0.04449,-2.863
[H][C@@]12CS(=O)(=O)C[C@]1([H])NCCN2c1ccnc(N(C)CC)n1,-,-35.33,-,-,-0.0609
O=C(c1cc(F)ccc1F)C1CCN(C(=O)c2ccco2)CC1,-38.14,-15.64,-12.68,1.869,6.376
CN1CCCN(c2nccc(-c3cncnc3C3CCCCC3)n2)CC1,14.7,1.084 and -2.307,5.074,2.698,9.132
Cn1cc(Cl)c(C(=O)N2CCCN(C3Cc4ccccc4C3)CC2)n1,14.26,-3.838,-9.321,-1.528,3.894
Cc1ccc(NCc2cnc3n2CCN(c2ncccn2)CC3)nn1,-11.2,5.385,-13.56,3.542,16.78
CC(=O)NCCNC(=O)Nc1ccc(Br)cc1C(C)C,-3.396,27.34,-17.59,-3.673,-6.117
O=C1NC(c2ccccc2)=N[C@@]12CC[C@@H]1CN(Cc3cccnc3)C[C@@H]12,-7.287,-,21.92,4.27,-
Cc1ccc(-c2ccc(CC3NCCN(C)C3=O)cc2)cc1.Cl (stereo not drawn),-,6.604 and -2.122,-,-,-6.063
Cc1cccc(S(=O)(=O)N2C[C@H]3C[C@H](C(=O)NCC4CC4)[C@@H](C2)O3)c1,4.933,-,-18.47,3.635,-
CCN(Cc1ccccn1)Cc1cc(Cl)ccc1OC,-2.986,22.85,-33.39,0.1963,-0.5945
O=C(NC1CC1)NC(c1ccc(F)cc1)C1CC1 (stereo not drawn),-9.234,4.479,-43.78,-1.048,18.91
CC(C(N)=O)n1nc(-c2cccs2)cc(N)c1=O (stereo not drawn),-17.43,6.224,7.891,-1.325,-0.3305
O=C(N1CCC(O)(C(F)(F)F)C1)C1(c2cccc(Cl)c2)CC1 (stereo not drawn),5.024,-8.625,-7.684,5.381,-1.872
CCSc1ncc(Cl)c(C(=O)NC(CCSC)C(=O)O)n1 (stereo not drawn),9.673,26.71,6.406,2.709,-2.15
COc1cc(NC(=O)c2cscn2)ncn1,4.884,28.59,-9.951,2.523,-7.36
O=C(c1ccc[nH]1)N(Cc1ccc(O)cc1)CC1CC1,1.779,-15.15,-18.24,3.608,-0.6944
COc1cccc(CC(=O)N2CCCC2c2nc(C)c(C)c(O)n2)c1 (stereo not drawn),4.676,15.63 and 20.06,-7.256,0.6068,-48.98
Cc1cccc(CN2CCC(c3nnsc3S(C)(=O)=O)CC2)c1,12.92,38.54 and 12.08,-,4.339,5.628
Cc1ccc(C(=O)N2CC[C@@]3(C[C@@H](NS(C)(=O)=O)CCO3)C2)s1,10.66,33.67,-24.09,4.232,-2.427
CCOc1ccccc1Oc1ccc(CN)cn1,-1.674,10.98,-26.18,1.453,3.837
CSCC(C)(O)CNS(=O)(=O)c1ccc(Br)cc1 (stereo not drawn),-4.043,0.133,-1.494,1.558,-8.339
O=C(NCC(O)COc1ccc(C(F)(F)F)cc1)Nc1nncs1 (stereo not drawn),-3.586,44.08,3.755,5.033,22.51
[H][C@]12CN(CC=C(C)C)C[C@@]1(C(=O)O)CN(C(=O)c1ccc(CO)cc1)C2,-,27.23,-,-,3.106
Cc1cc2n(n1)CC(CNCc1ccc(-n3ccnc3C)nc1)CN2 (stereo not drawn),-16.97,30.7,-7.654,0.5143,-13.77
Cc1ccc(S(=O)(=O)NC(=O)COc2cccc(C(N)=O)c2)s1,-15.43,18.72,4.962,1.394,-6.853
CCn1nc(CC(C)C)cc1C(=O)NCC(F)(F)F,-4.009,13.17,-3.991,-4.617,18.76
CC(C)OCCSCCn1nc2ccccn2c1=O,-7.289,7.578,5.511,-1.088,5.871
Cc1cc(C(=O)NCc2ccnc(OCC(F)(F)F)c2)on1,-15.18,9.909,-17.53,-0.9474,10.52
CCN(Cc1ccncc1)Cc1c[nH]nc1-c1ccc(F)cc1,-2.169,7.396,-37.84,0.1586,16.95
CCOc1ccc(Cl)cc1NC(=O)N1CCC(n2cncn2)CC1,-3.213,3.205,-42.06,2.077,8.936
Cc1ccn(Cc2nc(C(C)OCC(C)C)no2)c(=O)c1 (stereo not drawn),11.12,4.888,-6.181,0.2699,-1.665
Cc1cc(CNCC2(O)CCOCC2)ccc1F,-10.58,25.3,-19.75,1.802,8.495
Cn1ccnc1CNC(=O)N(CCCO)C1CCCc2ccccc21 (stereo not drawn),-5.098,11.51,-27.41,8.694,0.05028
CC(C)COCC(NC(=O)CSc1nnc[nH]1)c1ccco1 (stereo not drawn),3.144,10.12,-11.1,4.123,0.4802
O=C(NCc1cccnc1)N1CCC2(CC(=O)N(c3ccsc3)C2)C1.O=C(O)C(F)(F)F (stereo not drawn),-,-0.8779,-,-,-9.904
Fc1ccc(CN2CCn3cc(Cn4cccn4)nc3C2)cc1,-18.69,-,2.466,0.1574,-
O=C(c1cnc(OCC(F)(F)F)c(Cl)c1)N1CCc2ccc(O)cc2C1,-2.844,42.73,-10.39,-2.114,13.88
Cc1nc(C2CCCN2C(=O)Cc2ccc(F)cc2)nc(O)c1C (stereo not drawn),-6.662,14.55 and 17.6,0.8409,2.788,4.074
CC(=O)N1CCCN(S(=O)(=O)c2cc3ccccc3o2)CC1,-10.53,-7.902,-9.285,4.802,0.8269
O=C(O)C(F)(F)F.O=C(c1ccccn1)N1CCC2(CC1)COC(COCC1CCCC1)C2 (stereo not drawn),-,18.31,-,-,2.319

5 of the entries, repeated:

structure	ClpP1P2	Leishmania in macrophages	Pks13 thioesterase	PfKRS1	Toxoplasma
CCOc1ccc(Cl)cc1NC(=O)N1CCC(n2cncn2)CC1	-3.213	3.205	-42.06	2.077	8.936
Cc1cc2n(n1)CC(CNCc1ccc(-n3ccnc3C)nc1)CN2 (stereo not drawn)	-16.97	30.7	-7.654	0.5143	-13.77
Cc1ccn(Cc2nc(C(C)OCC(C)C)no2)c(=O)c1 (stereo not drawn)	11.12	4.888	-6.181	0.2699	-1.665
Cc1ccc(S(=O)(=O)NC(=O)COc2cccc(C(N)=O)c2)s1	-15.43	18.72	4.962	1.394	-6.853
CC(C)OCCSCCn1nc2ccccn2c1=O	-7.289	7.578	5.511	-1.088	5.871